Data as given in the supplement of paper PMC10689618.
The list shows a part of the results. Many values rest on one well or one pass, so single values are uncertain.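 Primary human fetal astrocytes engulfed labelled rat cortical synaptosomes, measured as a red/green ratio corrected for calcein live-cell signal and scaled to the plate median. Toxicity meant calcein falling over 30%; decreased phagocytosis meant below 70% of median above 5 µM.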

Key:
Human fetal astrocytes [1] = assay: loss of total cells relative to no-compound high-control median (toxicity); higher = more toxic (fewer cells); conditions: 24 h
Human fetal astrocytes [2] = assay: synaptosome phagocytosis (pHrodo/calcein intensity ratio) relative to plate median of data wells; higher = more phagocytosis; conditions: 24 h

| SMILES | loss of total cells (Human fetal astrocytes [1]; 1.39 µM) | loss of total cells (Human fetal astrocytes [1]; 2.78 µM) | loss of total cells (Human fetal astrocytes [1]; 5.56 µM) | loss of total cells (Human fetal astrocytes [1]; 11.11 µM) | loss of total cells (Human fetal astrocytes [1]; 22.22 µM) | synaptosome phagocytosis (Human fetal astrocytes [2]; 1.39 µM) | synaptosome phagocytosis (Human fetal astrocytes [2]; 2.78 µM) | synaptosome phagocytosis (Human fetal astrocytes [2]; 5.56 µM) | synaptosome phagocytosis (Human fetal astrocytes [2]; 11.11 µM) | synaptosome phagocytosis (Human fetal astrocytes [2]; 22.22 µM) |
| --- | --- | --- | --- | --- | --- | --- | --- | --- | --- | --- |
| NNC(=O)c1ccncc1.Nc1ccc(C(=O)O)c(O)c1 | 10.5% | 14.1% | 13.8% | 23.8% | 22% | 132% | 103% | 126% | 99.2% | 84% |
| O=C([O-])c1ccccc1O.[Na+] | -2.1% | -18.6% | 2.1% | 17% | -19.8% | 110% | 101% | 102% | 130% | 86.1% |
| CN(C/C=C/C#CC(C)(C)C)Cc1cccc2ccccc12 | -20.7% | -8.2% | 3.9% | 2.3% | 51.6% | 111% | 102% | 87% | 129% | 47% |
| CC(C)(S)[C@@H](N)C(=O)O | 16.6% | -5.2% | 18.3% | -8.6% | 11.3% | 116% | 114% | 108% | 122% | 110% |
| COc1c2ccoc2c(OC)c2oc(=O)ccc12 | -4% | 14.6% | -8.4% | 45.8% | -6.3% | 118% | 131% | 93.9% | 118% | 63% |
| Cc1ncc([N+](=O)[O-])n1CCO | 2.5% | 0.9% | -0.9% | -3.9% | -2.8% | 103% | 140% | 114% | 121% | 109% |
| CC(C)(C)NCC(O)c1cc(O)cc(O)c1 (stereo not given) | -15.1% | -5.1% | 4.9% | -16.4% | -7% | 97.2% | 104% | 98% | 94.4% | 113% |
| COC(=O)Nc1nc2cc(Sc3ccccc3)ccc2[nH]1 | -18.3% | 5.2% | 10.5% | -1.6% | 4.5% | 117% | 119% | 96.7% | 105% | 110% |
| C=CC1=C(C)C2=CC3=NC(=C(CC(=O)O)C4=NC(=C(C)C4=C(O)O)C=c4[nH]c(c(C)c4CC)=CC1=N2)C(CCC(=O)O)C3C (stereo not given) | -30.6% | 38.9% | 16.8% | 52.8% | 65.7% | 85.3% | 147% | 99.4% | 78% | 56.5% |
| O=C(/C=C/C(=O)Oc1ccccc1C(=O)O)Oc1ccccc1C(=O)O | -22.1% | 0.4% | -23.4% | 2% | 17% | 104% | 94.1% | 146% | 120% | 136% |
| CS(=O)(=O)c1ccc([C@@H](O)[C@@H](CF)NC(=O)C(Cl)Cl)cc1 | -11.2% | 10.6% | -4.6% | 3.9% | -13% | 138% | 79.4% | 108% | 115% | 93.4% |
| CC(=O)N[C@@H](CS)C(=O)O [N-Acetyl-L-Cysteine] | -12.4% | 3.4% | 2.1% | -19.5% | 12.5% | 48.8% | 81.7% | 108% | 109% | 82.4% |
| CC(=O)Nc1ccc(OC(=O)c2ccccc2O)cc1 | 14.8% | 16.2% | 6.5% | 2.9% | 22% | 93.1% | 126% | 104% | 114% | 67.7% |
| N=c1ccn2c(n1)O[C@H]1[C@H](O)[C@@H](CO)O[C@H]12 | 20.6% | 19.1% | 11.6% | 19.7% | 14.4% | 106% | 97.6% | 109% | 140% | 77.3% |
| CC1(C)CC[C@]2(C(=O)O)CC[C@]3(C)C(=CC[C@@H]4[C@@]5(C)CC[C@H](O)C(C)(C)[C@@H]5CC[C@]43C)[C@@H]2C1 | -17.8% | 6.6% | 30.5% | 45.8% | 4.8% | 73.7% | 49.8% | 136% | 99.9% | 140% |
| COc1ccc2cc1Oc1ccc(cc1)C[C@H]1c3cc(c(OC)cc3CCN1C)Oc1c(OC)c(OC)cc3c1[C@H](C2)N(C)CC3 | 4.9% | -11.9% | 11% | 31.1% | 17.8% | 130% | 106% | 124% | 107% | 138% |
| O=C(Oc1cc(O)cc2c1C[C@@H](OC(=O)c1cc(O)c(O)c(O)c1)[C@@H](c1cc(O)c(O)c(O)c1)O2)c1cc(O)c(O)c(O)c1 | -16.3% | -6.6% | 5.3% | 24.5% | 29.3% | 101% | 119% | 80.2% | 106% | 152% |
| Cc1onc(-c2c(Cl)cccc2Cl)c1C(=O)N[C@@H]1C(=O)N2[C@@H]1SC(C)(C)[C@@H]2C(=O)O | 14.5% | -16.6% | 0.7% | 3.7% | -17.3% | 103% | 142% | 131% | 101% | 96.5% |
| Cn1nnnc1SCC1=C(C(=O)O)N2C(=O)[C@@H](NC(=O)[C@H](OC=O)c3ccccc3)[C@H]2SC1 | 23.4% | -18.3% | 4.3% | -1% | 7.2% | 142% | 109% | 77% | 72.2% | 107% |
| Cc1ccnc(NS(=O)(=O)c2ccc(N)cc2)n1 | 6.8% | -9.2% | 0% | 3.2% | 2.7% | 115% | 129% | 114% | 134% | 104% |
| O=c1cc(-c2ccc(O)cc2)oc2cc(O)ccc12 | -16.4% | -9.7% | -7.3% | 1.4% | 0% | 99.6% | 106% | 91% | 111% | 89.3% |

An excerpt from above in order of molar mass, largest number first:

| SMILES | loss of total cells (Human fetal astrocytes [1]; 1.39 µM) | loss of total cells (Human fetal astrocytes [1]; 2.78 µM) | loss of total cells (Human fetal astrocytes [1]; 5.56 µM) | loss of total cells (Human fetal astrocytes [1]; 11.11 µM) | loss of total cells (Human fetal astrocytes [1]; 22.22 µM) | synaptosome phagocytosis (Human fetal astrocytes [2]; 1.39 µM) | synaptosome phagocytosis (Human fetal astrocytes [2]; 2.78 µM) | synaptosome phagocytosis (Human fetal astrocytes [2]; 5.56 µM) | synaptosome phagocytosis (Human fetal astrocytes [2]; 11.11 µM) | synaptosome phagocytosis (Human fetal astrocytes [2]; 22.22 µM) |
| --- | --- | --- | --- | --- | --- | --- | --- | --- | --- | --- |
| O=C(Oc1cc(O)cc2c1C[C@@H](OC(=O)c1cc(O)c(O)c(O)c1)[C@@H](c1cc(O)c(O)c(O)c1)O2)c1cc(O)c(O)c(O)c1 | -16.3% | -6.6% | 5.3% | 24.5% | 29.3% | 101% | 119% | 80.2% | 106% | 152% |
| CC(=O)Nc1ccc(OC(=O)c2ccccc2O)cc1 | 14.8% | 16.2% | 6.5% | 2.9% | 22% | 93.1% | 126% | 104% | 114% | 67.7% |
| O=c1cc(-c2ccc(O)cc2)oc2cc(O)ccc12 | -16.4% | -9.7% | -7.3% | 1.4% | 0% | 99.6% | 106% | 91% | 111% | 89.3% |
